This test relates to patients with gout and a history of major cardiovascular diseases. Kind of test: eGFR over time by average serum uric acid concentration, analysis of clinical trial data. It counts as in vivo, human. The procedure:
In order to evaluate non-inferiority of febuxostat to allopurinol related to cardiovascular risk, a clinical trial was designed and proceeded.
A multicenter, randomized, double-blind non-inferiority trial was performed. The details of the clinical trial design have been published previously. An independent data and safety monitoring committee with access to unblinded data monitored the clinical trial. The statistical analysis for the data and the safety monitoring committee was performed by an independent statistical group (WebbWrites).
The patients were regarded as having a history of major cardiovascular diseases, if they had myocardial infarction, hospitalization for unstable angina, stroke, hospitalization for transient ischemic attack, peripheral vascular disease, or diabetes mellitus symptoms. All participants provided a prior informed consent form.
The patients were randomly assigned so that they received febuxostat or allopurinol administered once a day in a double-blind manner. The randomization was stratified according to the estimated creatinine clearance at baseline (patient group having an estimated creatinine clearance ≥60 ml per minute vs patient group having an estimated creatinine clearance ≥30 and <60 ml per minute).
The dose of allopurinol was modified according to a kidney function. The patients with the estimated creatinine clearance 60 ml or more per minute i) initially received allopurinol at a dose of 300 mg once a day, and the dose was increased in 100 mg increments monthly until the patient had the serum uric acid concentration of less than 6.0 mg per deciliter or the dosage of allopurinol was 600 mg once a day. The patient having the estimated creatinine clearance of 30 ml or more and less than 60 ml per minute initially received 200 mg of allopurinol, and then the dose was increased in 100 mg increments until the patient either had the serum uric acid concentration of less than 6.0 mg per deciliter or was receiving the allopurinol dose of 400 mg once daily.
The dose of febuxostat was not modified according to the kidney function. The patients who were randomly assigned to receive febuxostat initially received 40 mg once a daily, and continued to receive the same dosage if the serum uric acid concentration was less than 6.0 mg per deciliter after 2 weeks of the treatment. If the serum uric acid concentration was higher than 6.0 mg per deciliter at 2nd week visit, the dose of febuxostat was increased to 80 mg once daily for the remainder of the trial.
During the period, the administration of a double-blind and double-dummy trial medications was guided by an interactive voice-response system which was a procedure to prevent unblinding for the patients whose dose was not adjusted. After completing dose adjustment, the urate level was concealed from the investigators, and the treatment was managed throughout the trial using the interactive voice-response system.
Outpatient visits were conducted according to the following schedule: during screening and randomization, and at 2, 4, 6, 8, 10, 12, and 24 weeks after the randomization, and every 6 months during the subsequent years of the trial. The patients with reduced kidney function or, the patients aged 65 years or older at randomization were visited at 9 and 15 months for monitoring the serum chemical profile. If the patient agreed to be monitored, but would not return for study visit, telephone contact was made, but such method was not preferred or recommended.
In order to confirm the effect of allopurinol and febuxostat on the kidney disease, the data obtained in the clinical trial described above was analyzed.

SMILES strings stand for the structures. Further values from the same series stand in other lists.

On to `Cc1nc(-c2ccc(OCC(C)C)c(C#N)c2)sc1C(=O)O` [febuxostat], for which the “eGFR Mean (95% CI)” value runs as follows: (febuxostat group, Baseline UA≥ 8, Average UA <6, Month 6) 61.95 (60.74-63.16) ml/min/1.73 m^2; (febuxostat group, Baseline UA≥ 8, Average UA <6, Month 12) 63.09 (61.87-64.32) ml/min/1.73 m^2; (febuxostat group, Baseline UA≥ 8, Average UA ≥6, Month 6) 62.56 (60.65-64.47) ml/min/1.73 m^2; (febuxostat group, Baseline UA≥ 8, Average UA ≥6, Month 12) 62.75 (60.66-64.83) ml/min/1.73 m^2; (febuxostat group, Gout ≥10 (years), Average UA <6, Baseline) 65.79 (64.44-67.14) ml/min/1.73 m^2; (febuxostat group, Gout ≥10 (years), Average UA <6, Month 3) 65.15 (63.78-66.52) ml/min/1.73 m^2. Also, the “eGFR Mean (95% CI)” value by setting is: (febuxostat group, Gout ≥10 (years), Average UA <6, Month 6) 65.11 (63.69-66.53) ml/min/1.73 m^2; (febuxostat group, Gout ≥10 (years), Average UA <6, Month 12) 66.55 (65.13-67.97) ml/min/1.73 m^2; (febuxostat group, Gout ≥10 (years), Average UA <6, Month 18) 66.31 (64.75-67.87) ml/min/1.73 m^2; (febuxostat group, Gout ≥10 (years), Average UA <6, Month 24) 66.05 (64.32-67.77) ml/min/1.73 m^2; (febuxostat group, Gout ≥10 (years), Average UA <6, Month 30) 66.94 (65.12-68.76) ml/min/1.73 m^2; (febuxostat group, Gout ≥10 (years), Average UA <6, Month 36) 66.58 (64.66-68.49) ml/min/1.73 m^2. Also, the “eGFR Mean (95% CI)” value (febuxostat group, Gout ≥10 (years), Average UA <6, Month 42) is given as 67.99 (65.86-70.12) ml/min/1.73 m^2; the “eGFR Mean (95% CI)” value (febuxostat group, Gout ≥10 (years), Average UA <6, Month 48) is on record as 69.86 (67.58-72.14) ml/min/1.73 m^2; the “eGFR Mean (95% CI)” value (febuxostat group, Gout ≥10 (years), Average UA <6, Month 54) is listed as 70.12 (67.50-72.74) ml/min/1.73 m^2; the “eGFR Mean (95% CI)” value (febuxostat group, Gout ≥10 (years), Average UA <6, Month 60) is on record as 71.57 (68.65-74.50) ml/min/1.73 m^2; the “eGFR Mean (95% CI)” value (febuxostat group, Gout ≥10 (years), Average UA <6, Week 2) is recorded as 65.90 (64.51-67.29) ml/min/1.73 m^2; the “eGFR Mean (95% CI)” value (febuxostat group, Gout ≥10 (years), Average UA ≥6, Baseline) is on record as 66.85 (64.41-69.28) ml/min/1.73 m^2. The “eGFR Mean (95% CI)” value runs as follows: (febuxostat group, Gout ≥10 (years), Average UA ≥6, Month 3) 65.53 (63.05-68.01) ml/min/1.73 m^2; (febuxostat group, Gout ≥10 (years), Average UA ≥6, Month 6) 64.92 (62.53-67.31) ml/min/1.73 m^2; (febuxostat group, Gout ≥10 (years), Average UA ≥6, Month 12) 65.04 (62.45-67.64) ml/min/1.73 m^2; (febuxostat group, Gout ≥10 (years), Average UA ≥6, Month 18) 63.78 (60.85-66.70) ml/min/1.73 m^2; (febuxostat group, Gout ≥10 (years), Average UA ≥6, Month 24) 63.79 (60.66-66.92) ml/min/1.73 m^2; (febuxostat group, Gout ≥10 (years), Average UA ≥6, Month 30) 63.63 (60.01-67.26) ml/min/1.73 m^2. In addition, the “eGFR Mean (95% CI)” value is 64.38 (60.10-68.65) ml/min/1.73 m^2 (febuxostat group, Gout ≥10 (years), Average UA ≥6, Month 36); 63.50 (58.94-68.06) ml/min/1.73 m^2 (febuxostat group, Gout ≥10 (years), Average UA ≥6, Month 42); 65.40 (60.50-70.31) ml/min/1.73 m^2 (febuxostat group, Gout ≥10 (years), Average UA ≥6, Month 48); 63.22 (56.77-69.67) ml/min/1.73 m^2 (febuxostat group, Gout ≥10 (years), Average UA ≥6, Month 54); 67.46 (59.11-75.80) ml/min/1.73 m^2 (febuxostat group, Gout ≥10 (years), Average UA ≥6, Month 60); 65.72 (63.06-68.37) ml/min/1.73 m^2 (febuxostat group, Gout ≥10 (years), Average UA ≥6, Week 2).
As for `O=c1ncnc2[nH][nH]cc1-2` [allopurinol], the “eGFR Mean (95% CI)” value was 67.53 (66.44-68.62) ml/min/1.73 m^2 (allopurinol group, No congestive cardiac failure history, Average UA <6, Month 6); 66.56 (64.90-68.23) ml/min/1.73 m^2 (allopurinol group, No congestive cardiac failure history, Average UA ≥6, Month 3); 65.99 (64.33-67.66) ml/min/1.73 m^2 (allopurinol group, No congestive cardiac failure history, Average UA ≥6, Month 6).
